Measurements published in the supplement of paper PMC12542422.
Structures can show the parent of a compound that is named as a salt. ± gives the standard deviation of the averaged measurements. Some of the results follow. Values are raw readings; no control value is given beside them.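 HeLa cells imaged for ribosome-assembly readouts (ENP1 staining with or without export block, or inducible tagged ribosomal protein reporters); machine learning classified each cell's signal location against solvent (DMSO) controls. Hits exceeded the DMSO false-positive mean by five standard deviations, then were visually confirmed; three biological replicates.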

tested on: HeLa RPL29-GFP reporter; test: fraction of reporter-positive cells with nuclear (nucleolar or nucleolar/nucleoplasmic) RPL29-GFP (MainHitrate); higher = more cells with nucleolar/nuclear readout signal (for ENP1 -LMB: less RNAPI inhibition; for +LMB ENP1 and RP reporters: stronger nuclear/nucleolar retention, i.e. ribosome biogenesis defect); settings: concentration: 1 µM; treatment time: 6 h

O=C(O)/C=C/c1ccc(Cn2ccnc2)cc1 [Ozagrel HCl] and O=C(O)Cc1ccccc1Nc1c(Cl)cccc1Cl [Diclofenac Diethylamine] are within error of each other in “fraction of reporter-positive cells with nuclear” value (“fraction” below): 0.241 ± 0.089 for the first, 0.194 ± 0.066 for the second.

Nc1[nH]cnc2ncnc1-2 [Adenine] and S=c1[nH]cnc2nc[nH]c12 [Mercaptopurine] are within error of each other in “fraction” value: 0.276 ± 0.1 for the first, 0.221 ± 0.069 for the second.

C[C@H]1[C@H](NC(=O)/C(=N\OC(C)(C)C(=O)O)c2csc(N)n2)C(=O)N1S(=O)(=O)O [Aztreonam (Azactam, Cayston)] and C=C1c2c(Cl)ccc(O)c2C(=O)C2=C(O)[C@]3(O)C(=O)C(C(N)=O)=C(O)[C@@H](N(C)C)[C@@H]3[C@@H](O)[C@H]12.O=C(O)c1cc(S(=O)(=O)O)ccc1O [Meclocycline Sulfosalicylate] are within error of each other in “fraction” value: 0.217 ± 0.054 for the first, 0.335 ± 0.27 for the second.

O=C(Nc1c(Cl)cncc1Cl)c1ccc(OC(F)F)c(OCC2CC2)c1 [Roflumilast (Daxas)] and O=C(O)c1cc(-c2ccccc2)nc2ccccc12 [Cinchophen] are within error of each other in “fraction” value: 0.243 ± 0.069 for the first, 0.226 ± 0.054 for the second.

CCN(CC)C(=S)SSC(=S)N(CC)CC [Disulfiram (Antabuse)] and CC[C@H](C)C(=O)O[C@H]1C[C@@H](C)C=C2C=C[C@H](C)[C@H](CC[C@@H]3C[C@@H](O)CC(=O)O3)[C@H]21 [Lovastatin (Mevacor)] are within error of each other in “fraction” value: 0.348 ± 0.12 for the first, 0.22 ± 0.071 for the second.

Nc1nc2c(ncn2COCCO)c(=O)[nH]1 [Acyclovir (Aciclovir)] and Nc1ccc(O)c(C(=O)O)c1 [Mesalamine (Lialda)] are within error of each other in “fraction” value: 0.266 ± 0.081 for the first, 0.223 ± 0.044 for the second.

For O=P(O)(O)C(O)(Cc1cccnc1)P(=O)(O)O [Risedronate sodium], the “fraction” value was 0.198 ± 0.085.
